Source: US10954222B2, “Benzothiophene compound, alternative autophagy-inducing agent and anticancer agent including the compound as active ingredient, and method for screening for compound having anticancer activity” (National University Corporation Tokyo Medical and Dental …, priority 2012, dated 2021)
Some results were stated once for a whole list of compounds, not compound by compound.

Test system: mouse tumor cell line 53T
Test: Evaluation of in vitro anticancer activity (Cell titer blue, cell death induction rate)
Assay type: cell-based
Details: final concentration of 50 μM for 24 hours
Procedure: First, the mouse tumor cell line 53T was seeded at 2×10^4/well on 96 well plates. Then, on the following day, each of compounds #09 and #13 dissolved in DMSO was added at a final concentration of 1, 5, 10, 20, or 50 μM. In addition, a negative control to which only DMSO was added was prepared. Subsequently, the cells were cultured at 37° C. under 10% CO2 for 24 hours. Then, by using Cell titer blue (CTB) (manufactured by Promega) according to the attached protocol, the amount of the fluorescence of each well of the cells 10 minutes after the addition of the CTB reagent was measured as a CTB measurement value of the cells brought into contact with compound #09 or #13. On the basis of such measurement values, the cell death induction rate of each of compounds #09 and #13 was calculated according to the following formula. Cell death induction rate=(CTB measurement value of negative control−CTB measurement value of cells to which compound was added)/CTB measurement value of negative control

## CCOC(=O)c1c(NC(C)=O)sc2c(OCCN(CC)CC)c(Br)ccc12 [Compound #09, Ethyl 2-Acetylamino-6-bromo-7-[2-(N,N-diethylamino)ethyloxy]benzo[b]thiophene-3-carboxylate]
  induced cell death of the cells of the tumor cell line: ≥ 90%
